According to PMC6593165:
For at least one entry, the source does not settle the construct or the ends of the probe. Negatives hold for the conditions tested.

Tested on: GST-WRKY72 (Oryza sativa (rice, Nipponbare))
Experiment: EMSA
Details: 5-, 10-, 30-fold unlabeled probe weakened the shift; EMSA: 10 mM Tris-HCl pH 7.5, 50 mM KCl, 1 mM DTT, 2.5% glycerol, 5 mM MgCl2, 50 ng/uL poly(dI-dC), 0.05% NP-40, room temperature, 20 fmol biotin probe, 6% PAGE; recombinant protein; protein details: GST (N-terminal, pGEX-4T-1); label: biotin

| Sequence | binding result |
| --- | --- |
| AAGGTGGTGAGCCCAATCACCACCTTACTGGTTGACCTGCCGAAGACCGCTCCGCTGGCC (double strand) [AOS1 probe 1 (W-box)] | binds |

Same assay, conditions: EMSA: 10 mM Tris-HCl pH 7.5, 50 mM KCl, 1 mM DTT, 2.5% glycerol, 5 mM MgCl2, 50 ng/uL poly(dI-dC), 0.05% NP-40, room temperature, 20 fmol biotin probe, 6% PAGE; recombinant protein; protein details: GST (N-terminal, pGEX-4T-1); label: biotin

| Sequence | binding result |
| --- | --- |
| AAGGTGGTGAGCCCAATCACCACCTTACTGGTAAGGCTGCCGAAGACCGCTCCGCTGGCC (double strand) [AOS1 probe 4 (TaaggC)] | no binding |
| AAGGTGGTGAGCCCAATCACCACCTTACTGGTTGAAATGCCGAAGACCGCTCCGCTGGCC (double strand) [AOS1 probe 2 (TTGAaa)] | no binding |
| AAGGTGGTGAGCCCAATCACCACCTTACTGGTTGGGGTGCCGAAGACCGCTCCGCTGGCC (double strand) [AOS1 probe 3 (TTGggg)] | no binding |
| TCGGTCCGATCGATCGAGTCCACGGCCATGAGCTTAGCTTGTCATGCACGTAGCTTAATTAGGCCCGGAACTTCCAGTCT (double strand) [LOX1 probe] | no binding |
| TTGGAAAGGTACGATGTCAAAAAAATAAATTTGACCATTATTTTCTATTATAATATGTAT (double strand) [AOC probe] | no binding |
